# Data as given in the supplement of paper PMC6411743.
# Amino acid sequences for entries named in this document (tags omitted). A change or cut given only in a name is not applied to a line headed by its entry.
# UniProt Q9H0F7: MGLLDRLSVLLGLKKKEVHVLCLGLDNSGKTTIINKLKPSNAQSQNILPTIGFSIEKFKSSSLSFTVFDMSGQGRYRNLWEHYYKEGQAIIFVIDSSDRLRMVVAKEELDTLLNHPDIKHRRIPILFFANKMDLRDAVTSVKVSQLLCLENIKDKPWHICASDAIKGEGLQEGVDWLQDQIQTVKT
# UniProt Q9H7F0: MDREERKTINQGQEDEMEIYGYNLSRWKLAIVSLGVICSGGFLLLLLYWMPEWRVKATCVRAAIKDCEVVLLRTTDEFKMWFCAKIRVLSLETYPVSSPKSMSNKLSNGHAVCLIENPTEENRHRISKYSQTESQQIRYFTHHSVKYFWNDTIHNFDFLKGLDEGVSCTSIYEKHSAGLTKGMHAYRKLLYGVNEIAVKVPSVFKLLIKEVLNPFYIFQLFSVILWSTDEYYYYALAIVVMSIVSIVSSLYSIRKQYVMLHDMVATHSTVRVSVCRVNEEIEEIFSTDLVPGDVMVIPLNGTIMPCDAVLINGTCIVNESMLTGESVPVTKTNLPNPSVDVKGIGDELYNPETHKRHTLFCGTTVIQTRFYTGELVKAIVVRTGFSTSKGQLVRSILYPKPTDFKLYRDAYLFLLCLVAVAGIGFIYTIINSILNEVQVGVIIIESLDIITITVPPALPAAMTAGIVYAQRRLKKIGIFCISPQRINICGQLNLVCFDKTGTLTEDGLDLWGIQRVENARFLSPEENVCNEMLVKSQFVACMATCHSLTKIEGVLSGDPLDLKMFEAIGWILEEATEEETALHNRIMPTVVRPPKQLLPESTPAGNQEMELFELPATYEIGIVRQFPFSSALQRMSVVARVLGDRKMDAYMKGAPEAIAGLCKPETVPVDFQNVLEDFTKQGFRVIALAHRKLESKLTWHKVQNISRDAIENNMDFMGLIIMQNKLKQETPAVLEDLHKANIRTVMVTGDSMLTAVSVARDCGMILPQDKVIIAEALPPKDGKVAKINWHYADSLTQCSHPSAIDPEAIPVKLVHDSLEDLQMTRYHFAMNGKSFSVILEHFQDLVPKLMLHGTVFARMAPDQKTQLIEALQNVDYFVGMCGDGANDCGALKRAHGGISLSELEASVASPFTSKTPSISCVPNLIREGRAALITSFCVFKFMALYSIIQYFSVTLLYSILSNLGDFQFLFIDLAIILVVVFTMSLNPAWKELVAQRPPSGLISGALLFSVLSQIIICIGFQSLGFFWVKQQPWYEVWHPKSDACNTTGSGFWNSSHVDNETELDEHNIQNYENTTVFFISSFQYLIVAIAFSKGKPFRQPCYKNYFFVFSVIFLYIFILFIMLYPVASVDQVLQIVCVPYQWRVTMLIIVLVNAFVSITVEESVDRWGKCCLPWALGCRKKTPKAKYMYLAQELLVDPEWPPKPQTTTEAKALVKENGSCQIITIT
# UniProt Q9H0B6: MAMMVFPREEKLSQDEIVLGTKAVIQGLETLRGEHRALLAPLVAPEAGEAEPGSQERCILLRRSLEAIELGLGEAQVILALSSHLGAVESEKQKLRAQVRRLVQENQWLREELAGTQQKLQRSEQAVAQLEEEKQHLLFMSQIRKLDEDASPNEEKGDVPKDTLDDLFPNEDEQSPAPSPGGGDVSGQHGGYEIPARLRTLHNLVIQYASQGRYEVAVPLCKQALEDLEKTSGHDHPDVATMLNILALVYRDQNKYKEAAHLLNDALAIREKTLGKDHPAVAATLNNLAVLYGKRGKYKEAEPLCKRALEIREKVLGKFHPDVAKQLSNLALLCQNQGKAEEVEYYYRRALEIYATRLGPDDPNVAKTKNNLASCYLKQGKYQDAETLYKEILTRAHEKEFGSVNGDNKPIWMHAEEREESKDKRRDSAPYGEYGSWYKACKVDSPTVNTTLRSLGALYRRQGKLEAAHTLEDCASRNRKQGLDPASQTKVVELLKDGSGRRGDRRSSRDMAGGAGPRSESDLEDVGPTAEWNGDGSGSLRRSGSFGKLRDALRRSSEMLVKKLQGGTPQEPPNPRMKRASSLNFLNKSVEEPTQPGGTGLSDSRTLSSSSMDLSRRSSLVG
# UniProt Q9HAV4: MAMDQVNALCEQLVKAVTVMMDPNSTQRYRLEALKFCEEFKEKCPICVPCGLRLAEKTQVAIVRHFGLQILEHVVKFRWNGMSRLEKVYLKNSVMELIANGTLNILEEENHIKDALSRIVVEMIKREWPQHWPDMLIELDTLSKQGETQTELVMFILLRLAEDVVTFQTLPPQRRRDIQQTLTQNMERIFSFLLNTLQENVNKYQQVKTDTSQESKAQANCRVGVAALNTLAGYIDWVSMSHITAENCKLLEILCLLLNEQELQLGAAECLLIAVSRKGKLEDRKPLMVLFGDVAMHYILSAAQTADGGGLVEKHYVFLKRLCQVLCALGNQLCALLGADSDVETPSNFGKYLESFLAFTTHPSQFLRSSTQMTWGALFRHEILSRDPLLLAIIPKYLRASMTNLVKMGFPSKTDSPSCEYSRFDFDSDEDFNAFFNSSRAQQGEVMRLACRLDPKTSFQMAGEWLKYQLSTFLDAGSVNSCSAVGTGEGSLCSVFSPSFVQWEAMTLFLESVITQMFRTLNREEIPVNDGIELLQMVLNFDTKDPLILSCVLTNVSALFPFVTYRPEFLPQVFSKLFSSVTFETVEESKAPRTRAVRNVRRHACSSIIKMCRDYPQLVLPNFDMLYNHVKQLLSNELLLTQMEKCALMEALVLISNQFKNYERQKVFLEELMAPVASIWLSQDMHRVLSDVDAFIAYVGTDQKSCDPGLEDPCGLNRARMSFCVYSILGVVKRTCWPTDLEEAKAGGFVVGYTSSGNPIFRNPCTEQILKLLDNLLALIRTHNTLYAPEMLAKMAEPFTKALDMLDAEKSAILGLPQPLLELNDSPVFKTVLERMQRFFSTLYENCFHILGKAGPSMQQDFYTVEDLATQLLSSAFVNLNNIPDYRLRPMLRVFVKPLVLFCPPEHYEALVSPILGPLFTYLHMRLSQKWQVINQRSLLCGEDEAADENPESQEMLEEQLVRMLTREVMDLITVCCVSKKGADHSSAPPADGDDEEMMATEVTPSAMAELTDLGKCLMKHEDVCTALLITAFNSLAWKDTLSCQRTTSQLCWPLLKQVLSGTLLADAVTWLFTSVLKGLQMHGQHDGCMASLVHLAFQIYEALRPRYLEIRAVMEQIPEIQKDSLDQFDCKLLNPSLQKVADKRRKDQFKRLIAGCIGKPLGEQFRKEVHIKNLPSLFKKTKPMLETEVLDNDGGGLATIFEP
# UniProt Q9C0B1, whole entry, looked up: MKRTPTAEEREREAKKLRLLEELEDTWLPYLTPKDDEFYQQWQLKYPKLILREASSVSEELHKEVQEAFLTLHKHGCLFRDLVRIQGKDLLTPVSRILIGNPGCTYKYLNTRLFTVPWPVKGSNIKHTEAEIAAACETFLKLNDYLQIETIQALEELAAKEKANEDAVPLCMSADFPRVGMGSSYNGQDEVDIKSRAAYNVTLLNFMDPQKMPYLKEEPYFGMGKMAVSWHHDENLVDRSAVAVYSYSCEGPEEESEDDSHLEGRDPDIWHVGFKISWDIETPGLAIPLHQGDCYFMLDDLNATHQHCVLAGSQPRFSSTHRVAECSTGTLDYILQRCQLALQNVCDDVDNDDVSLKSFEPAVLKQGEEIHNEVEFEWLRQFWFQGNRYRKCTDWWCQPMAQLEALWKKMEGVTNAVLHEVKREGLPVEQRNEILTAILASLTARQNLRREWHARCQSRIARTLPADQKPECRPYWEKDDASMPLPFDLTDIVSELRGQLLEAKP
# UniProt Q9H1P3, whole entry: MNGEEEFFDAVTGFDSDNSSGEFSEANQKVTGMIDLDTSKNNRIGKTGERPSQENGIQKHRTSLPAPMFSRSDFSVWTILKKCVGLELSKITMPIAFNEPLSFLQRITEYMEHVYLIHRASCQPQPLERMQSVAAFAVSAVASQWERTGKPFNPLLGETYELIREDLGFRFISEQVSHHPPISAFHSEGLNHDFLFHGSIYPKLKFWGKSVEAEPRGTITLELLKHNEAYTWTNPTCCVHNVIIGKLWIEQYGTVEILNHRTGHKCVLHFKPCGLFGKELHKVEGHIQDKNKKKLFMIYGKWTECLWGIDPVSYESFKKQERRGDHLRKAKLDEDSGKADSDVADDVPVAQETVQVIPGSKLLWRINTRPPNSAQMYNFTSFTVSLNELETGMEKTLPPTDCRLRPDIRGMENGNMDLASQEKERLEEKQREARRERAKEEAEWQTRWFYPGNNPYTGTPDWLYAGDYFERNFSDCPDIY
# UniProt Q9H4L5: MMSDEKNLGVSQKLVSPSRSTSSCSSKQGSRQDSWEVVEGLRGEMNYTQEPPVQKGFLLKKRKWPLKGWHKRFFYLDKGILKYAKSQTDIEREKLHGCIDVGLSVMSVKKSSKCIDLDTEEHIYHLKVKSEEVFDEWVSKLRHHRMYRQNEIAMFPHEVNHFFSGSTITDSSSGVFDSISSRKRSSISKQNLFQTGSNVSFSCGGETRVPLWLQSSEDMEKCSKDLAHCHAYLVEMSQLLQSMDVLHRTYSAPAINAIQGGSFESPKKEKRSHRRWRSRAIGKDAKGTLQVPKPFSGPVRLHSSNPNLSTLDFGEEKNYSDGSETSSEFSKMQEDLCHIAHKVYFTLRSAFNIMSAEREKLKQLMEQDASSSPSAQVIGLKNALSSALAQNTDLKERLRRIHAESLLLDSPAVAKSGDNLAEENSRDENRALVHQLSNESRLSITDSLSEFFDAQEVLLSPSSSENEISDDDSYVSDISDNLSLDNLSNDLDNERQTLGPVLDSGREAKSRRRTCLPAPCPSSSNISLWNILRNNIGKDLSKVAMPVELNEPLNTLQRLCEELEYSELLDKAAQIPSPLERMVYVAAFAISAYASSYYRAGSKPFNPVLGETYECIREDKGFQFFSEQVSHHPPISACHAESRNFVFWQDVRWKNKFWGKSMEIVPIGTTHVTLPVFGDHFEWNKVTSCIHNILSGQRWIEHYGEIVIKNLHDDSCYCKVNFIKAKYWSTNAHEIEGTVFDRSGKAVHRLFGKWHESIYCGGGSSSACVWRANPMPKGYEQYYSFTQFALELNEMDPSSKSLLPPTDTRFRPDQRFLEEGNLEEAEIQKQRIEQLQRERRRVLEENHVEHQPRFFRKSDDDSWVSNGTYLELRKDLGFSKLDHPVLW
# UniProt Q9H0S4: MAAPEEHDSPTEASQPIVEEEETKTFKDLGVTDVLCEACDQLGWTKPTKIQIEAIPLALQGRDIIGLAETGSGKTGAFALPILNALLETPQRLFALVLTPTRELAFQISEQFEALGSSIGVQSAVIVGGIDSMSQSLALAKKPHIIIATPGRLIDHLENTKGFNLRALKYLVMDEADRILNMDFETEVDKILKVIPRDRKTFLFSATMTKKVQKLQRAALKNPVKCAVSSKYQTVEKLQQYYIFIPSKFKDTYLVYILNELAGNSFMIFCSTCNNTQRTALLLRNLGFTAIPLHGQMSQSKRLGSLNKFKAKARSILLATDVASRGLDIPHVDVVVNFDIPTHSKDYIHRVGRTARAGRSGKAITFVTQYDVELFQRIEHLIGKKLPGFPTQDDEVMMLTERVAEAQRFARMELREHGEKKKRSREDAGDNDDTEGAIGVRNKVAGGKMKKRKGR
# UniProt Q9HB71, whole entry: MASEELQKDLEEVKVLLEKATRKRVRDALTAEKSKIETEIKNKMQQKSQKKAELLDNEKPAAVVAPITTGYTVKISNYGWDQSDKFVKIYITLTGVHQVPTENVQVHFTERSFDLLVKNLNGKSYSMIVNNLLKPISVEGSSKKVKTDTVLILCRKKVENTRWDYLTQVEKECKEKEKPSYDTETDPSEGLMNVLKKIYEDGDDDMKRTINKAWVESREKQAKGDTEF
# UniProt Q9NUB1: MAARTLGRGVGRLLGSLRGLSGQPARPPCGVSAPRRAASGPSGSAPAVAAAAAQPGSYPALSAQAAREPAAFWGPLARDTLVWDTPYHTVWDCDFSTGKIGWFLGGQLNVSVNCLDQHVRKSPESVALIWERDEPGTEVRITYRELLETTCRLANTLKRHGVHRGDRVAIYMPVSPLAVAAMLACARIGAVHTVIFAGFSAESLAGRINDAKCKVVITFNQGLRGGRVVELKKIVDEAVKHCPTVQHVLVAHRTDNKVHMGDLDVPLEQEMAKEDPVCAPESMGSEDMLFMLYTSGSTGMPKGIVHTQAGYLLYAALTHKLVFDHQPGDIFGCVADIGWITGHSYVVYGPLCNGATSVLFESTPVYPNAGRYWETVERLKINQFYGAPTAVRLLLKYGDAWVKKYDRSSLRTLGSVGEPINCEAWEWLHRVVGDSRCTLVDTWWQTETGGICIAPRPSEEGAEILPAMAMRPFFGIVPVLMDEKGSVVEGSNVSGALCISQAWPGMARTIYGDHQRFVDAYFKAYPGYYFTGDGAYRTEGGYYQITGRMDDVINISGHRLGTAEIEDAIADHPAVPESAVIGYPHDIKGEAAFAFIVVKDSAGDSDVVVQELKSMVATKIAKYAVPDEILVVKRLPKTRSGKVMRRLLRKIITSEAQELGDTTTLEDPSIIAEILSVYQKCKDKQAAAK
# ± gives the standard deviation of the averaged measurements. This is one part of the list.
# Compound: Nc1nc2c(ncn2[C@@H]2O[C@H](COP(=O)(O)OP(=O)(O)OP(=O)(O)O)[C@@H](O)[C@H]2O)c(=O)[nH]1 [guanosine triphosphate]
# Assay: NP40-soluble protein abundance relative to vehicle (solubility fold change) (ratio); higher = more soluble protein in presence of GTP
# In short: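 Each value is a fold change relative to the detergent-processed vehicle, calculated per replicate from vsn-normalised intensities. Jurkat crude lysate received eight concentrations (0.1 to 10 mM) for 10 min at room temperature and 3 min at 37 °C, then was solubilised in 0.8% NP40 with benzonase (60 min, 4 °C). The ultracentrifuged supernatant was TMT-labelled and run by LC-MS/MS in three independent experiments.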
Target,NP40-soluble protein abundance (concentration: 0.1mM),NP40-soluble protein abundance (concentration: 0.5mM),NP40-soluble protein abundance (concentration: 1mM),NP40-soluble protein abundance (concentration: 2mM),NP40-soluble protein abundance (concentration: 4mM),NP40-soluble protein abundance (concentration: 6mM),NP40-soluble protein abundance (concentration: 8mM),NP40-soluble protein abundance (concentration: 10mM)
CHMP4B (UniProt Q9H444),1.03 ± 0.047,1.03 ± 0.037,1.09 ± 0.041,1.05 ± 0.062,1.02 ± 0.077,1.06 ± 0.13,1.16 ± 0.035,1.16 ± 0.033
EXOSC3 (UniProt Q9NQT5),1.1 ± 0.069,1.04 ± 0.08,1.12 ± 0.051,1.18 ± 0.15,1.35 ± 0.14,1.25 ± 0.17,1.32 ± 0.11,1.29 ± 0.11
UniProt Q9H0F7 and related entries,1.02 ± 0.063,1.03 ± 0.1,0.914 ± 0.011,0.986 ± 0.12,0.932 ± 0.065,0.904 ± 0.032,0.864 ± 0.061,0.882 ± 0.065
UniProt Q9H7F0 and related entries,1.19 ± 0.081,1.11 ± 0.073,1.13 ± 0.042,1.07 ± 0.07,1.069 ± 0.0085,0.984 ± 0.078,1.14 ± 0.072,1.01 ± 0.12
TM7SF3 (UniProt Q9NS93),1.01 ± 0.14,1.03 ± 0.041,1.07 ± 0.11,1.05 ± 0.14,1 ± 0.073,0.986 ± 0.015,1.01 ± 0.08,1.01 ± 0.084
EML4 (UniProt Q9HC35),0.994 ± 0.038,0.986 ± 0.05,0.944 ± 0.088,0.941 ± 0.082,0.917 ± 0.089,0.943 ± 0.064,0.95 ± 0.049,0.943 ± 0.062
PNN (UniProt Q9H307),1.06 ± 0.029,1.09 ± 0.024,1.26 ± 0.15,1.17 ± 0.1,1.1 ± 0.25,0.942 ± 0.22,0.955 ± 0.25,0.97 ± 0.27
RACGAP1 (UniProt Q9H0H5),1.08 ± 0.031,1.1 ± 0.047,1.11 ± 0.065,1.13 ± 0.052,1.14 ± 0.05,1.14 ± 0.05,1.16 ± 0.053,1.15 ± 0.043
RTN4 (UniProt Q9NQC3),0.931 ± 0.032,0.916 ± 0.056,0.949 ± 0.069,0.942 ± 0.076,0.951 ± 0.072,0.946 ± 0.071,0.909 ± 0.09,0.948 ± 0.062
KLC2 (UniProt Q9H0B6),0.998 ± 0.011,0.934 ± 0.044,0.997 ± 0.056,0.961 ± 0.083,0.954 ± 0.067,0.955 ± 0.062,0.977 ± 0.029,0.993 ± 0.096
UniProt Q9H2F5 and related entries,1.22 ± 0.22,1.29 ± 0.34,1.16 ± 0.17,1.31 ± 0.27,1.45 ± 0.39,1.44 ± 0.56,1.41 ± 0.51,1.55 ± 0.68
XPO5 (UniProt Q9HAV4),1.02 ± 0.048,1.01 ± 0.039,0.951 ± 0.037,0.955 ± 0.058,0.925 ± 0.06,0.931 ± 0.057,0.902 ± 0.056,0.882 ± 0.068
UniProt Q9H832 and related entries,1.04 ± 0.06,0.987 ± 0.061,0.9687 ± 0.0042,1.12 ± 0.056,0.927 ± 0.013,0.934 ± 0.043,0.91 ± 0.034,0.963 ± 0.064
ETNK1 (UniProt Q9HBU6),1.07 ± 0.077,1.06 ± 0.1,0.976 ± 0.065,0.978 ± 0.085,1.01 ± 0.072,0.953 ± 0.097,0.964 ± 0.053,0.947 ± 0.014
FTO (UniProt Q9C0B1),1.02 ± 0.044,0.998 ± 0.042,0.957 ± 0.035,0.914 ± 0.028,0.921 ± 0.036,0.889 ± 0.012,0.906 ± 0.07,0.871 ± 0.066
UniProt Q9H1P3 and related entries,0.93345 ± 0.00088,0.909 ± 0.03,0.8815 ± 0.0072,0.851 ± 0.055,0.926 ± 0.095,0.885 ± 0.017,0.932 ± 0.061,0.898 ± 0.035
UniProt Q9H4L5 and related entries,1.07 ± 0.021,1.1 ± 0.019,1.07 ± 0.042,1.1 ± 0.039,1.09 ± 0.038,1.05 ± 0.044,1.11 ± 0.064,1.07 ± 0.048
UniProt Q9H9A5 and related entries,1.03 ± 0.051,1.05 ± 0.056,1.08 ± 0.029,1.13 ± 0.073,1.25 ± 0.14,1.23 ± 0.17,1.3 ± 0.2,1.31 ± 0.17
UniProt Q9NPA3,1.03 ± 0.047,1.03 ± 0.037,0.944 ± 0.078,0.992 ± 0.07,1.06 ± 0.046,1.04 ± 0.015,0.992 ± 0.078,0.987 ± 0.048
ANAPC1 (UniProt Q9H1A4),1.13 ± 0.17,1.24 ± 0.23,1.15 ± 0.23,1.23 ± 0.29,1.21 ± 0.26,1.24 ± 0.29,1.19 ± 0.26,1.14 ± 0.31
UniProt Q9H944 and related entries,1 ± 0.046,1.01 ± 0.05,0.928 ± 0.034,0.984 ± 0.019,0.976 ± 0.025,0.986 ± 0.029,0.9381 ± 0.0083,0.934 ± 0.029
ZHX3 (UniProt Q9H4I2),0.975 ± 0.062,0.94 ± 0.043,0.994 ± 0.1,1.01 ± 0.099,0.967 ± 0.039,1.01 ± 0.079,1.05 ± 0.07,1.05 ± 0.11
RPRD1B (UniProt Q9NQG5),0.862 ± 0.12,0.787 ± 0.09,1.09 ± 0.1,1.07 ± 0.051,1.09 ± 0.072,1.08 ± 0.07,0.93 ± 0.2,1.16 ± 0.13
UniProt Q9H6D7,0.98 ± 0.064,0.93 ± 0.035,1.06 ± 0.068,1.07 ± 0.03,1.08 ± 0.094,1.09 ± 0.063,1.01 ± 0.16,1.11 ± 0.13
DDX47 (UniProt Q9H0S4),1.1 ± 0.045,1.08 ± 0.057,1.02 ± 0.068,1.12 ± 0.1,1.34 ± 0.1,1.39 ± 0.066,1.5 ± 0.057,1.7 ± 0.12
ARFGAP3 (UniProt Q9NP61),0.952 ± 0.057,0.929 ± 0.056,0.934 ± 0.092,0.899 ± 0.12,0.885 ± 0.1,0.903 ± 0.12,0.905 ± 0.076,0.916 ± 0.1
CACYBP (UniProt Q9HB71),0.92 ± 0.077,0.941 ± 0.055,0.926 ± 0.088,0.861 ± 0.095,0.842 ± 0.11,0.878 ± 0.095,0.888 ± 0.08,0.855 ± 0.07
DHX33 (UniProt Q9H6R0),1.01 ± 0.19,1.02 ± 0.15,1.13 ± 0.14,1.25 ± 0.16,1.29 ± 0.13,1.43 ± 0.18,1.51 ± 0.14,1.48 ± 0.087
UniProt Q9NUB1 and related entries,1.05 ± 0.046,1.03 ± 0.046,0.94 ± 0.04,0.922 ± 0.061,0.937 ± 0.052,0.908 ± 0.058,0.897 ± 0.084,0.86 ± 0.092
UniProt Q9H9G7 and related entries,0.935 ± 0.067,1.01 ± 0.015,1.08 ± 0.2,0.957 ± 0.08,1.02 ± 0.061,1.06 ± 0.095,1.06 ± 0.084,1.062 ± 0.0073

# Nothing new here: entries from further up.
Target,NP40-soluble protein abundance (concentration: 0.1mM),NP40-soluble protein abundance (concentration: 0.5mM),NP40-soluble protein abundance (concentration: 1mM),NP40-soluble protein abundance (concentration: 2mM),NP40-soluble protein abundance (concentration: 4mM),NP40-soluble protein abundance (concentration: 6mM),NP40-soluble protein abundance (concentration: 8mM),NP40-soluble protein abundance (concentration: 10mM)
UniProt Q9H2F5 and related entries,1.22 ± 0.22,1.29 ± 0.34,1.16 ± 0.17,1.31 ± 0.27,1.45 ± 0.39,1.44 ± 0.56,1.41 ± 0.51,1.55 ± 0.68
XPO5 (UniProt Q9HAV4),1.02 ± 0.048,1.01 ± 0.039,0.951 ± 0.037,0.955 ± 0.058,0.925 ± 0.06,0.931 ± 0.057,0.902 ± 0.056,0.882 ± 0.068
UniProt Q9H832 and related entries,1.04 ± 0.06,0.987 ± 0.061,0.9687 ± 0.0042,1.12 ± 0.056,0.927 ± 0.013,0.934 ± 0.043,0.91 ± 0.034,0.963 ± 0.064
ETNK1 (UniProt Q9HBU6),1.07 ± 0.077,1.06 ± 0.1,0.976 ± 0.065,0.978 ± 0.085,1.01 ± 0.072,0.953 ± 0.097,0.964 ± 0.053,0.947 ± 0.014
FTO (UniProt Q9C0B1),1.02 ± 0.044,0.998 ± 0.042,0.957 ± 0.035,0.914 ± 0.028,0.921 ± 0.036,0.889 ± 0.012,0.906 ± 0.07,0.871 ± 0.066
UniProt Q9H1P3 and related entries,0.93345 ± 0.00088,0.909 ± 0.03,0.8815 ± 0.0072,0.851 ± 0.055,0.926 ± 0.095,0.885 ± 0.017,0.932 ± 0.061,0.898 ± 0.035
